One substance from publication PMC7810871 can be followed below.

Sequences of proteins named here, by UniProt entry; tags and fusion partners are left off.
UniProt O05442: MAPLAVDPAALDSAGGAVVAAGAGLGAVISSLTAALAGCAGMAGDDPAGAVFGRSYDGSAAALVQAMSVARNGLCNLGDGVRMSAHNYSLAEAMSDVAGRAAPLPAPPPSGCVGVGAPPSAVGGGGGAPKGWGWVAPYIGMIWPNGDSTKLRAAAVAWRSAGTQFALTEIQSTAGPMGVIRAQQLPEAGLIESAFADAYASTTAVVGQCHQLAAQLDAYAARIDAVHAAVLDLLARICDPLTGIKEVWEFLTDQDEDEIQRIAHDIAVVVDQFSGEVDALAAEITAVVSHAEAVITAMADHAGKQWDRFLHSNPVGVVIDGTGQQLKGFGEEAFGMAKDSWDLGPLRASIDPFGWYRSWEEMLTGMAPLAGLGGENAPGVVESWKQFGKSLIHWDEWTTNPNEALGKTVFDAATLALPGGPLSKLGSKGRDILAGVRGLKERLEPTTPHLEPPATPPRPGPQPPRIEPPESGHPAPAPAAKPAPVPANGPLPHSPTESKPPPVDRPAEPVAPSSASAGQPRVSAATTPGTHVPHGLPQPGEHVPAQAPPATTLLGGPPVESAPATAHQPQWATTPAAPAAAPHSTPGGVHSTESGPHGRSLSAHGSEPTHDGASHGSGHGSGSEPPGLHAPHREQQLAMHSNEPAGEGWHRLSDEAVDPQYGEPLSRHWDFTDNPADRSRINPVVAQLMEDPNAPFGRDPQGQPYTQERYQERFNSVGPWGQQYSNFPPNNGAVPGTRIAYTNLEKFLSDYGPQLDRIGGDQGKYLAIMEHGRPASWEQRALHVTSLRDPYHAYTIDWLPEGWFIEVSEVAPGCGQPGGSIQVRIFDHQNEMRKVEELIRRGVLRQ

Results are given in words; binding and its absence hold for the method and conditions named. In cells and extracts the contact can be indirect. Some results given as binding are weak or reduced against the parent protein; the word gives no strength.

The target of the experiment is CpnT (channel protein with necrosis-inducing toxin) (Mycobacterium tuberculosis) (UniProt O05442). The experiment can be described thus: cross-linking.

In the case of “CpnT (channel protein with necrosis-inducing toxin) (from UniProt O05442 1-846)”, the binding result is reported as “binds”.
